Test results as given in the supplement of paper PMC8728848.
The other results are listed elsewhere or left out.

What was measured:
Assay in all cases: glycan array binding signal (z-score within array); higher = stronger binding
Conditions in all cases: glycan notation: IUPAC condensed, linker removed
[1] = target: GlcNAc(a1-4)Gal(b1-3)GlcNAc
Summary of the method: (§1)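 The binding signal is a Z-score computed within each array. Data were drawn from 3228 arrays in the Consortium for Functional Glycomics database, restricted to those with a known protein sequence. Scores were averaged over arrays of the same protein sequence at different concentrations or buffers, and over linkers, and negative values can be taken as non-binding.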

[2] = target: GlcNAc(a1-4)Gal(b1-4)GalNAc
Summary of the method: as §1

[3] = target: GlcNAc(a1-4)Gal(b1-4)GlcNAc
Summary of the method: as §1

[4] = target: GlcNAc(a1-4)Gal(b1-4)GlcNAc(b1-3)Gal(b1-4)Glc
Summary of the method: as §1

[5] = target: GlcNAc(a1-4)Gal(b1-4)GlcNAc(b1-3)Gal(b1-4)GlcNAc
Summary of the method: as §1

[6] = target: GlcNAc(a1-4)Gal(b1-4)GlcNAc(b1-3)Gal(b1-4)GlcNAc(b1-3)Gal(b1-4)GlcNAc
Summary of the method: as §1

[7] = target: GlcNAc(a1-4)Gal(b1-4)GlcNAc(b1-3)Gal(b1-4)[Fuc(a1-3)]GlcNAc(b1-3)Gal(b1-4)[Fuc(a1-3)]GlcNAc
Summary of the method: as §1

[8] = target: GlcNAc(a1-6)Gal(b1-4)GlcNAc
Summary of the method: as §1

[9] = target: GlcNAc(b1-2)Gal(b1-3)GalNAc
Summary of the method: as §1

[10] = target: GlcNAc(b1-2)Man(a1-3)[GlcNAc(b1-2)Man(a1-6)]Man(b1-4)GlcNAc(b1-4)GlcNAc
Summary of the method: as §1

[11] = target: GlcNAc(b1-2)Man(a1-3)[GlcNAc(b1-2)Man(a1-6)]Man(b1-4)GlcNAc(b1-4)[Fuc(a1-6)]GlcNAc
Summary of the method: as §1

[12] = target: GlcNAc(b1-2)Man(a1-3)[GlcNAc(b1-4)][GlcNAc(b1-2)Man(a1-6)]Man(b1-4)GlcNAc(b1-4)GlcNAc
Summary of the method: as §1

[13] = target: GlcNAc(b1-2)Man(a1-3)[GlcNAc(b1-4)][GlcNAc(b1-2)Man(a1-6)]Man(b1-4)GlcNAc(b1-4)[Fuc(a1-6)]GlcNAc
Summary of the method: as §1

[14] = target: GlcNAc(b1-2)[GlcNAc(b1-4)]Man(a1-3)[GlcNAc(b1-2)Man(a1-6)]Man(b1-4)GlcNAc(b1-4)GlcNAc
Summary of the method: as §1

[15] = target: GlcNAc(b1-2)[GlcNAc(b1-4)]Man(a1-3)[GlcNAc(b1-4)][GlcNAc(b1-2)Man(a1-6)]Man(b1-4)GlcNAc(b1-4)GlcNAc
Summary of the method: as §1

[16] = target: GlcNAc(b1-2)[GlcNAc(b1-4)]Man(a1-3)[GlcNAc(b1-4)][GlcNAc(b1-2)[GlcNAc(b1-6)]Man(a1-6)]Man(b1-4)GlcNAc(b1-4)GlcNAc
Summary of the method: as §1

[17] = target: GlcNAc(b1-2)[GlcNAc(b1-4)]Man(a1-3)[GlcNAc(b1-4)][GlcNAc(b1-2)[GlcNAc(b1-6)]Man(a1-6)]Man(b1-4)GlcNAc(b1-4)[Fuc(a1-6)]GlcNAc
Summary of the method: as §1

[18] = target: GlcNAc(b1-2)[GlcNAc(b1-6)]Man(a1-6)[GlcNAc(b1-2)Man(a1-3)]Man(b1-4)GlcNAc(b1-4)GlcNAc
Summary of the method: as §1

[19] = target: GlcNAc(b1-2)[GlcNAc(b1-6)]Man(a1-6)[GlcNAc(b1-2)Man(a1-3)]Man(b1-4)GlcNAc(b1-4)[Fuc(a1-6)]GlcNAc
Summary of the method: as §1

[20] = target: GlcNAc(b1-2)[GlcNAc(b1-6)]Man(a1-6)[GlcNAc(b1-4)][GlcNAc(b1-2)Man(a1-3)]Man(b1-4)GlcNAc(b1-4)GlcNAc
Summary of the method: as §1

GlcNAc(b1-3)Fuc = target: GlcNAc(b1-3)Fuc
Summary of the method: as §1

GlcNAc(b1-3)Gal = target: GlcNAc(b1-3)Gal
Summary of the method: as §1

[21] = target: GlcNAc(b1-3)Gal(b1-3)GalNAc
Summary of the method: as §1

GlcNAc(b1-3)Gal(b1-4)Glc = target: GlcNAc(b1-3)Gal(b1-4)Glc
Summary of the method: as §1

[22] = target: GlcNAc(b1-3)Gal(b1-4)GlcNAc
Summary of the method: as §1

[23] = target: GlcNAc(b1-3)Gal(b1-4)GlcNAc(b1-2)Man(a1-3)[GlcNAc(b1-3)Gal(b1-4)GlcNAc(b1-2)Man(a1-6)]Man(b1-4)GlcNAc(b1-4)GlcNAc
Summary of the method: as §1

[24] = target: GlcNAc(b1-3)Gal(b1-4)GlcNAc(b1-2)Man(a1-3)[GlcNAc(b1-3)Gal(b1-4)GlcNAc(b1-2)Man(a1-6)]Man(b1-4)GlcNAc(b1-4)[Fuc(a1-6)]GlcNAc
Summary of the method: as §1

[25] = target: GlcNAc(b1-3)Gal(b1-4)GlcNAc(b1-2)[GlcNAc(b1-3)Gal(b1-4)GlcNAc(b1-6)]Man(a1-6)[GlcNAc(b1-3)Gal(b1-4)GlcNAc(b1-2)Man(a1-3)]Man(b1-4)GlcNAc(b1-4)GlcNAc
Summary of the method: as §1

[26] = target: GlcNAc(b1-3)Gal(b1-4)GlcNAc(b1-3)Gal(b1-4)GlcNAc
Summary of the method: as §1

[27] = target: GlcNAc(b1-3)Gal(b1-4)GlcNAc(b1-3)Gal(b1-4)GlcNAc(b1-2)Man(a1-3)[GlcNAc(b1-3)Gal(b1-4)GlcNAc(b1-3)Gal(b1-4)GlcNAc(b1-2)Man(a1-6)]Man(b1-4)GlcNAc(b1-4)GlcNAc
Summary of the method: as §1

[28] = target: GlcNAc(b1-3)Gal(b1-4)GlcNAc(b1-3)Gal(b1-4)GlcNAc(b1-2)Man(a1-3)[GlcNAc(b1-3)Gal(b1-4)GlcNAc(b1-3)Gal(b1-4)GlcNAc(b1-2)Man(a1-6)]Man(b1-4)GlcNAc(b1-4)[Fuc(a1-6)]GlcNAc
Summary of the method: as §1

[29] = target: GlcNAc(b1-3)Gal(b1-4)GlcNAc(b1-3)Gal(b1-4)GlcNAc(b1-2)[GlcNAc(b1-3)Gal(b1-4)GlcNAc(b1-3)Gal(b1-4)GlcNAc(b1-6)]Man(a1-6)[GlcNAc(b1-3)Gal(b1-4)GlcNAc(b1-3)Gal(b1-4)GlcNAc(b1-2)Man(a1-3)]Man(b1-4)GlcNAc(b1-4)[Fuc(a1-6)]GlcNAc
Summary of the method: as §1

[30] = target: GlcNAc(b1-3)Gal(b1-4)GlcNAc(b1-3)Gal(b1-4)GlcNAc(b1-3)Gal(b1-4)GlcNAc(b1-2)Man(a1-3)[GlcNAc(b1-3)Gal(b1-4)GlcNAc(b1-3)Gal(b1-4)GlcNAc(b1-3)Gal(b1-4)GlcNAc(b1-2)Man(a1-6)]Man(b1-4)GlcNAc(b1-4)GlcNAc
Summary of the method: as §1

[31] = target: GlcNAc(b1-3)Gal(b1-4)GlcNAc(b1-3)Gal(b1-4)GlcNAc(b1-3)Gal(b1-4)GlcNAc(b1-2)Man(a1-3)[GlcNAc(b1-3)Gal(b1-4)GlcNAc(b1-3)Gal(b1-4)GlcNAc(b1-3)Gal(b1-4)GlcNAc(b1-2)Man(a1-6)]Man(b1-4)GlcNAc(b1-4)[Fuc(a1-6)]GlcNAc
Summary of the method: as §1

[32] = target: GlcNAc(b1-3)Gal(b1-4)GlcNAc(b1-3)Gal(b1-4)GlcNAc(b1-3)Gal(b1-4)GlcNAc(b1-2)[GlcNAc(b1-3)Gal(b1-4)GlcNAc(b1-3)Gal(b1-4)GlcNAc(b1-3)Gal(b1-4)GlcNAc(b1-6)]Man(a1-6)[GlcNAc(b1-3)Gal(b1-4)GlcNAc(b1-3)Gal(b1-4)GlcNAc(b1-3)Gal(b1-4)GlcNAc(b1-2)Man(a1-3)]Man(b1-4)GlcNAc(b1-4)[Fuc(a1-6)]GlcNAc
Summary of the method: as §1

[33] = target: GlcNAc(b1-3)Gal(b1-4)GlcNAc(b1-3)Gal(b1-4)GlcNAc(b1-3)Gal(b1-4)GlcNAc(b1-3)Gal(b1-4)GlcNAc(b1-2)Man(a1-3)[GlcNAc(b1-3)Gal(b1-4)GlcNAc(b1-3)Gal(b1-4)GlcNAc(b1-3)Gal(b1-4)GlcNAc(b1-3)Gal(b1-4)GlcNAc(b1-2)Man(a1-6)]Man(b1-4)GlcNAc(b1-4)GlcNAc
Summary of the method: as §1

[34] = target: GlcNAc(b1-3)Gal(b1-4)GlcNAc(b1-3)Gal(b1-4)GlcNAc(b1-3)Gal(b1-4)GlcNAc(b1-3)Gal(b1-4)GlcNAc(b1-2)Man(a1-3)[GlcNAc(b1-3)Gal(b1-4)GlcNAc(b1-3)Gal(b1-4)GlcNAc(b1-3)Gal(b1-4)GlcNAc(b1-3)Gal(b1-4)GlcNAc(b1-2)Man(a1-6)]Man(b1-4)GlcNAc(b1-4)[Fuc(a1-6)]GlcNAc
Summary of the method: as §1

[35] = target: GlcNAc(b1-3)Gal(b1-4)GlcNAc(b1-3)Gal(b1-4)GlcNAc(b1-3)Gal(b1-4)GlcNAc(b1-3)Gal(b1-4)GlcNAc(b1-2)[GlcNAc(b1-3)Gal(b1-4)GlcNAc(b1-3)Gal(b1-4)GlcNAc(b1-3)Gal(b1-4)GlcNAc(b1-3)Gal(b1-4)GlcNAc(b1-6)]Man(a1-6)[GlcNAc(b1-3)Gal(b1-4)GlcNAc(b1-3)Gal(b1-4)GlcNAc(b1-3)Gal(b1-4)GlcNAc(b1-3)Gal(b1-4)GlcNAc(b1-2)Man(a1-3)]Man(b1-4)GlcNAc(b1-4)[Fuc(a1-6)]GlcNAc
Summary of the method: as §1

B1: EUL D1A (Oryza sativa) (protein)
chain: MFGFGHHHNQAPAAPSDPNQIFKIFCRANENYCLTVRDSAVVLAPVNPKDEHQHWFKDMRFSTKVKDGEGMPAFALVNKATGLAVKHSLGQSHPVKLVPFNPEYEDASVLWTESKDVGKGFRCIRMVNNTRLNLDAFHGDKDHGGVRDGTTVVLWEWCKGDNQSWKILPWGPEAHSSSPGAATACTIGGVPVHTVRVFSAAGEDYCLTVRNGTACLAPKNPRDDYQHWIKDMRHSNKIRDEEGYPAFALVNKVTGEAIKHSTGQGHPVKLVPYNPEYQDESVLWTESKDVGKGFRCIRMVNNIYLNFDAFHGDKDHGGIHDGTEIVLWKWCEGDNQRWKILPWILEQKLISEEDLNSAVDHHHHHH
[1]
  glycan array binding signal (z-score): -1.29
[2]
  glycan array binding signal (z-score): -0.573
[3]
  glycan array binding signal (z-score): 0.793
[4]
  glycan array binding signal (z-score): -0.786
[5]
  glycan array binding signal (z-score): -0.266
[6]
  glycan array binding signal (z-score): 0.051
[7]
  glycan array binding signal (z-score): 1.42
[8]
  glycan array binding signal (z-score): 2.67
[9]
  glycan array binding signal (z-score): -1.13
[10]
  glycan array binding signal (z-score): 1.36
[11]
  glycan array binding signal (z-score): 2.33
[12]
  glycan array binding signal (z-score): -0.82
[13]
  glycan array binding signal (z-score): -0.263
[14]
  glycan array binding signal (z-score): -0.636
[15]
  glycan array binding signal (z-score): -0.313
[16]
  glycan array binding signal (z-score): -1.26
[17]
  glycan array binding signal (z-score): -0.235
[18]
  glycan array binding signal (z-score): 0.231
[19]
  glycan array binding signal (z-score): 1.69
[20]
  glycan array binding signal (z-score): -0.726
GlcNAc(b1-3)Fuc
  glycan array binding signal (z-score): 0.149
GlcNAc(b1-3)Gal
  glycan array binding signal (z-score): 0.598
[21]
  glycan array binding signal (z-score): -0.757
GlcNAc(b1-3)Gal(b1-4)Glc
  glycan array binding signal (z-score): 0.211
[22]
  glycan array binding signal (z-score): -0.108
[23]
  glycan array binding signal (z-score): -1.41
[24]
  glycan array binding signal (z-score): 0.665
[25]
  glycan array binding signal (z-score): 2.19
[26]
  glycan array binding signal (z-score): 0.418
[27]
  glycan array binding signal (z-score): -0.886
[28]
  glycan array binding signal (z-score): 0.655
[29]
  glycan array binding signal (z-score): 1.36
[30]
  glycan array binding signal (z-score): -0.584
[31]
  glycan array binding signal (z-score): 1.55
[32]
  glycan array binding signal (z-score): 1.32
[33]
  glycan array binding signal (z-score): 1.19
[34]
  glycan array binding signal (z-score): 1.58
[35]
  glycan array binding signal (z-score): 0.277
